The other results are listed elsewhere or left out. Further columns of the screen follow, without active or inactive calls. The list favours compounds with an active or inconclusive main result. Potencies come from curve fits of mixed quality, noted in brackets.
Assay: qHTS Assay for Lipid Storage Modulators in Drosophila S3 Cells;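 on cell number change: cells counted by Cell Tracker Red CMTPX staining in the red channel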
Settings: BODIPY lipid droplet fluorescence, 18-24 h; for cell number change: measured here: cell count max response, cells fed with added oleic acid
Method in brief: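 Drosophila S3 cells loaded with oleic acid (400 uM, as added) and compounds at several concentrations; lipid droplets imaged by 488-nm laser-scanning cytometry, 500–530 nm intensity and object ratio to cell channel. Percent activity normalized to 20 uM Triacsin C.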

[1] = measured here: lipid fluorescence (Fed channel) AC50, cells fed with added oleic acid
[2] = measured here: cell number channel AC50, cells fed with added oleic acid

Compound: O=C(NCC1CCN(Cc2cccc(Cl)c2)CC1)C1CCCN(c2ncnc3c2nc2n3CCCCC2)C1 (centres undefined)
- cell number change: 8.66%

Compound: Cc1ccc(C(=O)O/N=C/c2c(N3CCOCC3)n(C)c3ccccc23)cc1
- cell number change: -16.3%
- AC50 [1]: 18.4 µM [falling, partial curve]

Compound: CCOC(=O)c1c(-c2ccc(OC)cc2)csc1/N=C/C1C(=O)CCCC1=O
- cell number change: -44.2%
- AC50 [1]: 29.1 µM [falling, single point]

Compound: Cc1c(Cl)cccc1NC(=O)Nc1cnccn1
- cell number change: 2.44%
- AC50 [1]: 11.6 µM [falling, partial curve, poor fit]

Compound: Cc1nc2scc(-c3cccs3)c2c(=O)n1N
- cell number change: -39.4%
- AC50 [2]: 7.31 µM [falling, partial curve]
- AC50 [1]: 6.51 µM [falling, partial curve]

Compound: COc1cc(NC(=O)c2ccc(F)cc2)c(OC)cc1NC(=O)CN1CCCCC1
- cell number change: -1.25%

Compound: Cc1c(O)ccc2c(CN(C)Cc3ccccc3)cc(=O)oc12
- cell number change: 7.68%
- AC50 [2]: 0.58 µM [falling, single point]

Compound: Cn1c(=O)n(C)c2cc(NS(=O)(=O)c3ccccc3[N+](=O)[O-])ccc21
- cell number change: 16.1%

Compound: COc1cccc(/C=N/NC(=S)NC2CC3CCC2C3)c1OC (centres undefined)
- AC50 [1]: 1.3 µM [rising, partial curve]

Compound: CCc1noc(C)c1C(=O)N1CCC(CCC(=O)Nc2cccc(OC)c2)CC1
- cell number change: 3.74%
- AC50 [1]: 0.112 µM [rising, full curve, poor fit]

Compound: Cc1ccc2c(c1)C(c1ccncc1)=NNC(c1ccc(F)cc1)=N2
- cell number change: 16.9%
- AC50 [2]: 0.517 µM [rising, full curve, poor fit]

Compound: Cn1c(Cc2cccc3ccccc23)nnc1SCC(=O)N1CCN(c2cccc(Cl)c2)CC1
- cell number change: 12.3%

Compound: COC(=O)c1sccc1NC(=O)CSc1ccccc1NC(=O)CNC(C)C
- cell number change: -41%

Compound: O=C(Nc1cccc(F)c1)c1ccc2ncsc2c1
- cell number change: 3.52%
- AC50 [1]: 0.184 µM [rising, single point]

Compound: Cc1ccccc1N1CCN(CCCN2C(=O)C3CCCCN3C2=O)CC1 (centres undefined)
- cell number change: 3.31%
- AC50 [1]: 18.4 µM [falling, partial curve]

Compound: Cc1cnc(C(=O)OCC(=O)NC2CCCCCC2)cn1
- cell number change: -26.9%

Compound: O=C1C=CC(=O)C(C2=C3C(=O)N(CCc4ccccc4)CC(=O)N3CCC2)=C1
- cell number change: -83%
- AC50 [2]: 14.6 µM [falling, partial curve]
- AC50 [1]: 14.6 µM [falling, partial curve]

Compound: CN(C)CCCN(Cc1ccccc1)C(=S)Nc1ccc(SC(F)F)cc1
- cell number change: 4.19%
- AC50 [2]: 0.411 µM [rising, single point]
- AC50 [1]: 0.461 µM [rising, single point]

Compound: O=C(CCc1ccc(O)c(O)c1)N/N=C/c1ccc2c(c1)OCO2
- cell number change: -40.5%
- AC50 [2]: 20.6 µM [falling, single point]

Compound: O=C(NC(c1ccccc1)c1ccccc1)N1CCN(CCO)CC1
- cell number change: 9.25%

Compound: COC(=O)c1sccc1NC(=O)c1cnc2cc(C)nn2c1C
- cell number change: 63.4%

Compound: COc1ccc(-c2nn(-c3ccccc3)cc2/C=C\C(=O)Nc2ccc(C(=O)O)cc2)cc1
- cell number change: 18%
- AC50 [1]: 0.517 µM [rising, single point]

Compound: COc1ccc(OCCCC(=O)Nc2ccc(N3CCCCC3)cc2)cc1
- cell number change: 16.7%
- AC50 [2]: 0.184 µM [falling, full curve, poor fit]
- AC50 [1]: 0.291 µM [falling, partial curve, poor fit]

Compound: CC(C)(C)c1ccc(OCCC(=O)Nc2cccc(S(=O)(=O)N3CCCC3)c2)cc1
- cell number change: -24.1%

Compound: CCn1c(SCC(=O)c2c[nH]c3ccccc23)nnc1-c1cccs1
- AC50 [2]: 1.46 µM [rising, partial curve]
- AC50 [1]: 6.51 µM [rising, partial curve]

Compound: Cc1ccc(-c2c(NCCc3ccccc3)c(=O)c2=O)cc1
- AC50 [1]: 23.1 µM [falling, single point]

Compound: O=C(NC1CCCCC1)c1ccc(-n2cnnn2)cc1
- AC50 [1]: 0.164 µM [falling, full curve]

Compound: COc1ccc(C(C)NC(=O)c2ccccc2)cc1 (centres undefined)
- cell number change: 40.7%
- AC50 [2]: 9.2 µM [rising, partial curve]

Compound: C[C@]12C=CC(=O)C=C1CCC1C3CC[C@](O)(C(=O)CO)[C@@]3(C)CC3OC312 (some centres undefined)
- cell number change: -4.48%
- AC50 [1]: 0.00461 µM [falling, full curve, poor fit]

Compound: CC1CCCN(S(=O)(=O)c2ccc(NC(=O)C3CCN(C(=O)c4ccco4)CC3)cc2)C1 (centres undefined)
- cell number change: 8.7%

Compound: CC(C)COP(=O)(c1ccc(N(C)C)cc1)C(O)c1ccccc1 (centres undefined)
- cell number change: -20.8%
- AC50 [1]: 6.51 µM [falling, single point]

Compound: COc1ccc(C(=O)Nc2nnc(SCC(=O)NC3CC3)s2)cc1
- cell number change: 23.9%

Compound: CCOc1ccc(OCC)c(NC(=O)C2CCN(S(=O)(=O)c3cccnc3)CC2)c1
- cell number change: 11.4%
- AC50 [2]: 0.58 µM [rising, full curve]
- AC50 [1]: 0.651 µM [rising, full curve]

Compound: Cc1cccc(C(C#N)c2ccc(Cl)nn2)c1 (centres undefined)
- cell number change: 1.17%
- AC50 [2]: 2.31 µM [falling, single point]

Compound: CCN(CC)c1nc2c(c(=O)[nH]c(=O)n2C)n1Cc1ccccc1Cl
- cell number change: 36.1%
- AC50 [1]: 29.1 µM [rising, single point]

Compound: O=C(Cc1cccs1)Nc1ccc(S(=O)(=O)N2CCCC2)cc1
- cell number change: -18%
- AC50 [1]: 18.4 µM [falling, single point]

Compound: C/C(CCc1ccco1)=N/NC(=O)CCC(=O)Nc1ccc(Br)cc1
- cell number change: 9.65%
- AC50 [1]: 32.6 µM [rising, single point]

Compound: CCOC(=O)C1CCN(C(=O)CN(c2ccc3c(c2)OCO3)S(C)(=O)=O)CC1
- cell number change: -18.7%
- AC50 [2]: 0.00517 µM [falling, full curve]

Compound: COc1cccc(NC(=O)CN(C)C(=O)CCCNC(=O)c2ccc(Cl)cc2)c1
- cell number change: -4.81%
- AC50 [1]: 23.1 µM [rising, single point]

Compound: COc1cccc(N2CCN(S(=O)(=O)c3ccc4c(c3)NC(=O)CS4)CC2)c1
- cell number change: -15.4%

Compound: O=C(COC(=O)c1cc([N+](=O)[O-])ccc1N1CCOCC1)NCCc1ccccc1
- cell number change: 11%
- AC50 [1]: 32.6 µM [falling, single point]

Compound: Cc1ccc(C(=O)/C=C/Nc2ccc([N+](=O)[O-])cc2Br)cc1
- cell number change: -4.32%
- AC50 [1]: 29.1 µM [falling, single point]
